Among the data in the supplement of paper PMC10849652 are log2 fold change values, retold here.

Protein sequences, listed by entry. Tags and fused reporters are not part of them. Lines headed by an entry give the natural chain unless they say otherwise; changes in a name come on top.
UniProt Q8WZA9: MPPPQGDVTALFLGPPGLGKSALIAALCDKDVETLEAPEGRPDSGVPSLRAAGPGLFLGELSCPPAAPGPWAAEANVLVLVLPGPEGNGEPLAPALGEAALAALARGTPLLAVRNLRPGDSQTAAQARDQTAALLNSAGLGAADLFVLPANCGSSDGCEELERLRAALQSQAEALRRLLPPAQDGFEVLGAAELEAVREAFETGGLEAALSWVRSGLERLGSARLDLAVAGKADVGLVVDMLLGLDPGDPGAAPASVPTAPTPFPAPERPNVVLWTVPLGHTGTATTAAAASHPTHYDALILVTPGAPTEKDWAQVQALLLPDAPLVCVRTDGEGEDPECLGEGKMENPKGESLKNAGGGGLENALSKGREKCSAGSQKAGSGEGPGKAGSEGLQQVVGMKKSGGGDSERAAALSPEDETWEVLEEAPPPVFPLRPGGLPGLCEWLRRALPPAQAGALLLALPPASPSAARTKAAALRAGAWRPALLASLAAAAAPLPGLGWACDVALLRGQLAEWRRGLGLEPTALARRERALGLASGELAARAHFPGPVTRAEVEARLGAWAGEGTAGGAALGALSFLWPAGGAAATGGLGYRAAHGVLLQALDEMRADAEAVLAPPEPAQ
UniProt Q9NXR8, whole entry, looked up: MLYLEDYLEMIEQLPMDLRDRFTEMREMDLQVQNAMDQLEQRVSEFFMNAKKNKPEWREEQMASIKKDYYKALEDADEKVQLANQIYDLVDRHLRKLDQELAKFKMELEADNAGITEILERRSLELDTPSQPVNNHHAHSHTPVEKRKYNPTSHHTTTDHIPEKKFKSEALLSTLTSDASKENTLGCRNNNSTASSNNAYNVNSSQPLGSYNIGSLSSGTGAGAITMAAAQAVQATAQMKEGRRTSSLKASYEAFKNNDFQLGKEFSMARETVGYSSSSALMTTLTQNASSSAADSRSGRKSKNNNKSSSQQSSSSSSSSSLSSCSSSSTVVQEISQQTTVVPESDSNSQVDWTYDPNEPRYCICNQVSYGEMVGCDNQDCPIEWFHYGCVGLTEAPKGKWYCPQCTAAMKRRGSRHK
UniProt Q9Y5U9: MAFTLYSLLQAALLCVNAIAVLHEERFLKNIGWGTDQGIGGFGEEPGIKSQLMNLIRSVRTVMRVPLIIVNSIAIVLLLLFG
UniProt P58166: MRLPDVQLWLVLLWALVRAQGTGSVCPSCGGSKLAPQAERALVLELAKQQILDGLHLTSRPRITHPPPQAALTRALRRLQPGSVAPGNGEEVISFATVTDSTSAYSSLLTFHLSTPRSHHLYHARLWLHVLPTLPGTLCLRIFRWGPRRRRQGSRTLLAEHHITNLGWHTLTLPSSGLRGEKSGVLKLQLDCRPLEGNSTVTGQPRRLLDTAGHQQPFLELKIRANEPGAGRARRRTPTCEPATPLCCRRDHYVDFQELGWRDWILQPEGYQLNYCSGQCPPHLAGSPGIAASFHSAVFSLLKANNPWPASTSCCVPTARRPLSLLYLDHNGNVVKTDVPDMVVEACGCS

Some of the results follow.

Compound in the assay: c1cn2cc(-c3ccc4cn[nH]c4c3)nc(Nc3ccc(N4CCOCC4)cc3)c2n1 [entospletinib]
The experiment in a line: log2 fold change, soluble protein after heating vs DMSO (PISA); higher = thermal stabilisation; K562 cells, 10 uM, 30 min; active = over 0.2 and 3.5 SD of the protein, either way, in both replicates (recomputed). The essentials:
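K562 cells at 2×10^6 cells/mL were treated for 30 min with 10 μM compound, and aliquots were heated for 3 min over 48°C-58°C before pooling. Extraction used PBS with 0.5% NP-40 at 4°C, and soluble protein was the supernatant after 21,000xg for 90 min, measured by TMTpro 16plex LC-MS/MS with channel sums equalised. Thermal stability values, relative to control samples and from duplicates, are log2 fold changes.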
Turning to IRGQ (UniProt Q8WZA9), the log2 fold change is inactive: -0.025. With ING3 (UniProt Q9NXR8) the figure was inactive: 0.032; with IER3IP1 (UniProt Q9Y5U9), inactive: -0.049; with INHBE (UniProt P58166), inactive: 0.044.
